Results: the supplement of paper PMC8728848
The other results are listed elsewhere or left out.

How the values were obtained:
Test in all cases: glycan array binding signal (z-score within array); higher = stronger binding
Settings in all cases: glycan notation: IUPAC condensed, linker removed
[1] = molecular target: Gal(b1-4)GlcNAc(b1-6)Gal(b1-4)GlcNAc
In short: (§1)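 Columns mapping to the same glycan were averaged after glycan names were converted to IUPAC-condensed notation. The data come from 3228 arrays in the Consortium for Functional Glycomics database, limited to those with an available protein sequence. Binding is reported as a within-array Z-score averaged across arrays of one protein sequence and across linkers.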

[2] = molecular target: Gal(b1-4)GlcNAc(b1-6)GalNAc
In short: as §1

[3] = molecular target: Gal(b1-4)GlcNAc(b1-6)[Gal(b1-3)]GalNAc
In short: as §1

[4] = molecular target: Gal(b1-4)GlcNAc(b1-6)[Gal(b1-4)GlcNAc(b1-3)]GalNAc
In short: as §1

Gal(b1-4)GlcNAc6P = molecular target: Gal(b1-4)GlcNAc6P
In short: as §1

Gal(b1-6)Gal = molecular target: Gal(b1-6)Gal
In short: as §1

Gal3S(b1-3)GalNAc = molecular target: Gal3S(b1-3)GalNAc
In short: as §1

Gal3S(b1-3)GlcNAc = molecular target: Gal3S(b1-3)GlcNAc
In short: as §1

[5] = molecular target: Gal3S(b1-3)[Fuc(a1-4)]GlcNAc
In short: as §1

Gal3S(b1-4)Glc = molecular target: Gal3S(b1-4)Glc
In short: as §1

Gal3S(b1-4)Glc6S = molecular target: Gal3S(b1-4)Glc6S
In short: as §1

Gal3S(b1-4)GlcNAc = molecular target: Gal3S(b1-4)GlcNAc
In short: as §1

[6] = molecular target: Gal3S(b1-4)[Fuc(a1-3)]Glc6S
In short: as §1

[7] = molecular target: Gal3S(b1-4)[Fuc(a1-3)]GlcNAc
In short: as §1

[8] = molecular target: Gal3S(b1-4)[Fuc(a1-3)]GlcNAc6S
In short: as §1

Gal3S4S(b1-4)GlcNAc = molecular target: Gal3S4S(b1-4)GlcNAc
In short: as §1

Gal3S6S(b1-4)GlcNAc = molecular target: Gal3S6S(b1-4)GlcNAc
In short: as §1

Gal3S6S(b1-4)GlcNAc6S = molecular target: Gal3S6S(b1-4)GlcNAc6S
In short: as §1

Gal4S(b1-4)GlcNAc = molecular target: Gal4S(b1-4)GlcNAc
In short: as §1

Gal4S6S(b1-4)GlcNAc = molecular target: Gal4S6S(b1-4)GlcNAc
In short: as §1

Gal6P(b1-4)GlcNAc = molecular target: Gal6P(b1-4)GlcNAc
In short: as §1

Gal6S(b1-3)GlcNAc = molecular target: Gal6S(b1-3)GlcNAc
In short: as §1

Gal6S(b1-3)GlcNAc6S = molecular target: Gal6S(b1-3)GlcNAc6S
In short: as §1

Gal6S(b1-4)Glc = molecular target: Gal6S(b1-4)Glc
In short: as §1

Gal6S(b1-4)Glc6S = molecular target: Gal6S(b1-4)Glc6S
In short: as §1

Gal6S(b1-4)GlcNAc = molecular target: Gal6S(b1-4)GlcNAc
In short: as §1

Gal6S(b1-4)GlcNAc6S = molecular target: Gal6S(b1-4)GlcNAc6S
In short: as §1

GalNAc(a1-3)Gal = molecular target: GalNAc(a1-3)Gal
In short: as §1

GalNAc(a1-3)GalNAc = molecular target: GalNAc(a1-3)GalNAc
In short: as §1

[9] = molecular target: GalNAc(a1-3)GalNAc(b1-3)Gal(a1-4)Gal(b1-4)Glc
In short: as §1

[10] = molecular target: GalNAc(a1-3)GalNAc(b1-3)Gal(a1-4)Gal(b1-4)GlcNAc
In short: as §1

GalNAc(b1-3)Gal = molecular target: GalNAc(b1-3)Gal
In short: as §1

[11] = molecular target: GalNAc(b1-3)Gal(a1-4)Gal(b1-4)GlcNAc
In short: as §1

[12] = molecular target: GalNAc(b1-3)Gal(a1-4)Gal(b1-4)GlcNAc(b1-3)Gal(b1-4)Glc
In short: as §1

[13] = molecular target: GalNAc(b1-3)Gal(a1-6)Gal(b1-4)Glc
In short: as §1

GalNAc(b1-3)GalNAc = molecular target: GalNAc(b1-3)GalNAc
In short: as §1

GalNAc(b1-3)GlcNAc = molecular target: GalNAc(b1-3)GlcNAc
In short: as §1

GalNAc(b1-4)Gal(b1-4)Glc = molecular target: GalNAc(b1-4)Gal(b1-4)Glc
In short: as §1

B1: DC-Sign-R (Homo sapiens), Q9H2X3 (protein)
chain: MSDSKEPRVQQLGLLEEDPTTSGIRLFPRDFQFQQIHGHKSSTGCLGHGALVLQLLSFMLLAGVLVAILVQVSKVPSSLSQEQSEQDAIYQNLTQLKAAVGELSEKSKLQEIYQELTQLKAAVGELPEKSKLQEIYQELTRLKAAVGELPEKSKLQEIYQELTRLKAAVGELPEKSKLQEIYQELTRLKAAVGELPEKSKLQEIYQELTELKAAVGELPEKSKLQEIYQELTQLKAAVGELPDQSKQQQIYQELTDLKTAFERLCRHCPKDWTFFQGNCYFMSNSQRNWHDSVTACQEVRAQLVVIKTAEEQNFLQLQTSRSNRFSWMGLSDLNQEGTWQWVDGSPLSPSFQRYWNSGEPNNSGNEDCAEFSGSGWNDNRCDVDNYWICKKPAACFRDE
B1 was tested, and the “glycan array binding signal (z-score)” value [1] was 0.266, the “glycan array binding signal (z-score)” value [2] was -0.504 and the “glycan array binding signal (z-score)” value [3] was -0.369. For the same binder, the “glycan array binding signal (z-score)” value [4] was -0.051, the “glycan array binding signal (z-score)” value (Gal(b1-4)GlcNAc6P) was -0.738 and the “glycan array binding signal (z-score)” value (Gal(b1-6)Gal) was -0.753. For the same binder, the “glycan array binding signal (z-score)” value (Gal3S(b1-3)GalNAc) was -0.843, the “glycan array binding signal (z-score)” value (Gal3S(b1-3)GlcNAc) was -0.493 and the “glycan array binding signal (z-score)” value [5] was 0.513. The “glycan array binding signal (z-score)” value (Gal3S(b1-4)Glc) was -0.46, the “glycan array binding signal (z-score)” value (Gal3S(b1-4)Glc6S) was -0.395 and the “glycan array binding signal (z-score)” value (Gal3S(b1-4)GlcNAc) was 0.181. For the same binder, the “glycan array binding signal (z-score)” value [6] was -0.259, the “glycan array binding signal (z-score)” value [7] was 0.631 and the “glycan array binding signal (z-score)” value [8] was -0.567. For the same binder, the “glycan array binding signal (z-score)” value (Gal3S4S(b1-4)GlcNAc) was -0.058, the “glycan array binding signal (z-score)” value (Gal3S6S(b1-4)GlcNAc) was -0.003 and the “glycan array binding signal (z-score)” value (Gal3S6S(b1-4)GlcNAc6S) was 0.202. For the same binder, the “glycan array binding signal (z-score)” value (Gal4S(b1-4)GlcNAc) was -0.49, the “glycan array binding signal (z-score)” value (Gal4S6S(b1-4)GlcNAc) was 0.167 and the “glycan array binding signal (z-score)” value (Gal6P(b1-4)GlcNAc) was -0.856. The “glycan array binding signal (z-score)” value (Gal6S(b1-3)GlcNAc) was -0.57, the “glycan array binding signal (z-score)” value (Gal6S(b1-3)GlcNAc6S) was 0.262 and the “glycan array binding signal (z-score)” value (Gal6S(b1-4)Glc) was -0.744. For the same binder, the “glycan array binding signal (z-score)” value (Gal6S(b1-4)Glc6S) was -0.383, the “glycan array binding signal (z-score)” value (Gal6S(b1-4)GlcNAc) was 0.34 and the “glycan array binding signal (z-score)” value (Gal6S(b1-4)GlcNAc6S) was 0.089. The “glycan array binding signal (z-score)” value (GalNAc(a1-3)Gal) was -0.027, the “glycan array binding signal (z-score)” value (GalNAc(a1-3)GalNAc) was -0.163 and the “glycan array binding signal (z-score)” value [9] was 0.156. For the same binder, the “glycan array binding signal (z-score)” value [10] was 0.343, the “glycan array binding signal (z-score)” value (GalNAc(b1-3)Gal) was 0.88 and the “glycan array binding signal (z-score)” value [11] was -0.247. For the same binder, the “glycan array binding signal (z-score)” value [12] was -0.035, the “glycan array binding signal (z-score)” value [13] was 2.04 and the “glycan array binding signal (z-score)” value (GalNAc(b1-3)GalNAc) was -0.437. The “glycan array binding signal (z-score)” value (GalNAc(b1-3)GlcNAc) was -0.545 and the “glycan array binding signal (z-score)” value (GalNAc(b1-4)Gal(b1-4)Glc) was 0.004.
